# Reference: patent publication US20220185818A1, “PYRROLOHETEROCYCLIC DERIVATIVE, PREPARATION METHOD THEREFOR, AND APPLICATION THEREOF IN MEDICINE” (Jiangsu Hengrui Medicine Co., Ltd., priority 2019, published 2022)
# Assay: Pharmacokinetics assay in mice
# Details: female, C57, mouse, in vivo, po, 2 mg/kg
compound,measurement,value
"Cc1cnc(Nc2ccnn2C)nc1-c1cc2n(c1)C(=O)N([C@H](CO)c1cccc(Cl)c1)C2 [Example 3, (S)-2-(1-(3-Chlorophenyl)-2-hydroxyethyl)-6-(5-methyl-2-((1-methyl-1H-pyrazol-5-yl)amino)pyrimidin-4-yl)-1H-pyrrolo[1,2-c]imidazol-3(2H)-one]",AUC,2470 ng·h/mL
same,CL/F,13.5 mL/min/kg
same,Vd/F,4.1 L/kg
